Earlier results in EP3643303A1, “COMPOUNDS FOR USE IN THE TREATMENT OR PREVENTION OF FIBROTIC DISEASES; PHARMACEUTICAL, COSMETIC COMPOSITIONS AND USES THEREOF” (InnovativeHealth Group SL, priority 2018, dated 2020).
Counter-ions that a name gives are not always drawn. At least one compound was matched to its structure with a doubt left.

Columns and labels:
SSc fibroblast = details: cited from earlier work
healthy fibroblasts = details: cited from earlier work

For `Cc1c(C(=O)c2cccc3ccccc23)c2cccc3c2n1[C@H](CN1CCOCC1)CO3` [WIN 55,212-2, (R)-(+)-[2,3-Dihydro-5-methyl-3[(4-morpholinyl)methyl]pyrrolo[1,2,3-de]-1,4-benzoxazinyl]-(1-naphthalenyl)methanone mesylate salt], the SSc fibroblast apoptosis (SSc fibroblast) is listed as “increased” and the “effect on healthy fibroblasts” value (healthy fibroblasts) is listed as “without affecting”.
